The nature of the assay: qHTS Assay to Find Inhibitors of Chronic Active B-Cell Receptor Signaling. To be noted: ABC-DLBCL IkBa-CBG/CBR reporter, luminescence ratio (green luciferase fused to IkBa over red control in TMD8 lymphoma cells), 4 h. In short, it runs like this:
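Doxycycline induced both beetle luciferases in TMD8 lymphoma cells; IKK-driven degradation limits the IkappaBalpha-fused green signal, while red luminescence normalises for cell number and nonspecific effects. Compounds tested up to 46 uM, 4 hrs.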
Background: qHTS replaces the single test concentration by a dilution series.

[1] abbreviates: measured here: CBR red luminescence, cell number.
The mark [2] stands for this setting: measured here: IkBa-CBG green luminescence.

The structures appear in SMILES notation. The list shows a part of the results. Further columns of the screen follow, without active or inactive calls. Most of these compounds were active or inconclusive in the main read-out, so they are no random draw. Words in brackets tell the shape of the fitted curve; partial curves, single points and poor fits give uncertain potencies.

As usually defined, the AC50 is the concentration at which the activity in the assay is half-maximal. For `O=C(c1ccccc1)N1N=C(c2ccccc2)CC1c1ccccc1` (stereo not drawn), the AC50 under setting [1] was 35.5 µM [falling, single point]. The same measure, in the same setting: the value for `COc1cc(C(=O)NC2CCCc3ccccc32)ccc1OCC(=O)Nc1ccc(F)cc1` (stereo not drawn) was 2.59 µM [rising, single point]; that for `C/C(CC(=O)Nc1cccc(Cl)c1Cl)=N\NC(=O)c1ccccc1Br` was 20 µM [falling, partial curve, poor fit]; that for `CC1S/C(=C(\C#N)C(=O)NCc2ccco2)N(Cc2ccco2)C1=O` (stereo not drawn) was 8.91 µM [falling, partial curve, poor fit]. `Cc1csc(NC(=O)c2sccc2C)n1`: under setting [1], the AC50 is 14.1 µM [falling, partial curve, poor fit]. Turning to `Cc1ccc(NC(=O)CO/N=C(\N)c2nonc2N)cc1`, the AC50 under setting [1] is 18.4 µM [falling, single point]. With `CCOC(=O)N1CCc2c(sc(NCc3sccc3C)c2C(=O)Nc2ccc(OC)cc2OC)C1`, under setting [1], the AC50 is 35.5 µM [falling, single point]. The same measure, in the same setting: with `COc1ccc(C2=CN3CCCCC3CC2=O)cc1OC` (stereo not drawn) the figure was 10.3 µM [rising, partial curve]; with `COC(=O)c1ccc(NC(=O)CNC(=O)c2sc3ccccc3c2Cl)cc1`, 0.00651 µM [falling, full curve, poor fit]; with `Cn1ncc2c(N3CCN(c4cccc(Cl)c4)CC3)ncnc21`, 35.5 µM [rising, single point]. On the same count and under the same terms, the value for `Cc1cccc(-c2nc(C#N)c(N3CCCCCC3)o2)c1` was 18.4 µM [rising, partial curve]. As to `Nc1ccc(C(=O)OCC(=O)NC2CCCc3ccccc32)cc1[N+](=O)[O-]` (stereo not drawn), the AC50 under setting [1] is 2.31 µM [falling, partial curve, poor fit]. The same measure, in the same setting: with `COc1ccc(-n2nnnc2-c2ccccc2)cc1` the figure was 0.517 µM [falling, partial curve, poor fit]; with `COc1ccc(C(=O)COC(=O)CNC(=O)c2ccc(OC)cc2)cc1`, 5.62 µM [falling, single point]. The same measure, in the same setting: the value for `Brc1cccc(OCCOCCn2ccnc2)c1` was 29.1 µM [rising, single point]; that for `O=C(NCc1ccc(Cl)cc1)Nc1ccc(F)cc1` was 2.51 µM [rising, full curve, poor fit]; that for `CCOc1ccc(NC(=O)N(C2CCCC2)C2CCN(C(C)=O)CC2)cc1` was 10 µM [rising, partial curve, poor fit]. Same read-out and setting: the value for `Cc1nc2ccccc2n1CC(=O)N/N=C/c1cccnc1` was 12.6 µM [rising, partial curve, poor fit]; that for `O=C(COc1cc(F)ccc1[N+](=O)[O-])NCC1CCCO1` (stereo not drawn) was 0.58 µM [falling, full curve]. Consider `COc1ccc(-n2c(-c3ccc(OC)c(OC)c3)n[nH]c2=S)cc1`, for which the AC50 under setting [1] was 35.5 µM [rising, single point].

As to `N#CCCN/N=C(/Cc1nc2ccccc2[nH]1)c1cccc(Cl)c1`, under setting [1], the AC50 is 2.59 µM [falling, full curve, poor fit].

Consider `CN(C(=O)c1cccnc1)c1nc(-c2ccccc2)cs1`, for which, under setting [1], the AC50 is 11.2 µM [rising, partial curve]. Same read-out and setting: with `COc1ccc([C@H]2CC(=O)C=C(c3cccc(OC)c3OC)C2)cc1OC` the figure was 32.6 µM [falling, single point]; with `COc1ccc(-c2cc(C(F)(F)F)nc(SCCC(=O)NCc3ccccc3)n2)cc1`, 25.9 µM [rising, partial curve, poor fit]. For `Cc1ccc(Nc2nc(N)c([N+](=O)[O-])c(N3CCCC(C)C3)n2)cc1C` (stereo not drawn), the AC50 under setting [1] is 0.411 µM [rising, partial curve, poor fit]. Same read-out and setting: the value for `CC(=O)Nc1ccc(S(=O)(=O)NCCC(=O)OCCN2C(=O)c3ccccc3C2=O)cc1` was 35.5 µM [rising, single point]; that for `COc1ccc(NC(=O)CN(C)C(=O)CN2C(=O)c3ccc([N+](=O)[O-])cc3C2=O)cc1` was 0.1 µM [rising, full curve, poor fit]. Still for that read-out and setting: the value for `COc1ccc(CCNC(=O)CCC(=O)n2ncc3cc(C)ccc32)cc1OC` was 3.55 µM [rising, full curve, poor fit]. Take `CCn1cc(C(=O)NC(=S)Nc2ccccc2Br)cn1`: under setting [1], the AC50 is 3.98 µM [falling, single point]. On the same count and under the same terms, with `CCN(C(=O)c1cc2c(=O)n3cccc(C)c3nc2n1CCCOC)C1CCCCC1` the figure was 12.6 µM [falling, single point]; with `Cc1ccccc1Nc1nc(-c2sc(NC(=O)c3cccc(Cl)c3)nc2C)cs1`, 8.91 µM [falling, partial curve, poor fit]; with `COc1ccc(-c2ccc(SCC(=O)Nc3cccc(C(C)=O)c3)nn2)cc1OC`, 12.6 µM [falling, partial curve]. Same read-out and setting: with `Cc1cc(Oc2ccccc2)nc2ccc(O)cc12` the figure was 3.98 µM [rising, full curve, poor fit]. With `CN(C)c1ccc(C(=O)c2ccc(N(C)C)c3ccccc23)cc1`, the AC50 under setting [1] is 0.651 µM [rising, full curve, poor fit] and the AC50 under setting [2] is 0.651 µM [falling, full curve]. On to `CC1=NNC(=O)/C1=C\c1cn(-c2ccccc2)nc1-c1ccc(F)cc1`, for which the AC50 under setting [1] is 35.5 µM [falling, single point] and the AC50 under setting [2] was 20 µM [rising, single point]. With `CCCC(=O)Nc1ccc(C(=O)NCC(=O)OCC)cc1`, the AC50 under setting [1] is 14.6 µM [rising, partial curve].

In the case of `c1csc(-c2nnc(-c3ccc(N4CCOCC4)cc3)o2)c1`, the AC50 under setting [1] was 35.5 µM [rising, partial curve, poor fit]. Consider `O=C(NCCc1ccccc1)C(=O)NCC1OCCN1S(=O)(=O)c1ccc2c(c1)OCCO2` (stereo not drawn), for which, under setting [1], the AC50 is 25.1 µM [falling, single point]. Same read-out and setting: the value for `CCOC(=O)Cc1csc(SCC(=O)NC2CCCC(C)C2C)n1` (stereo not drawn) was 25.9 µM [rising, single point]. On the same count and under the same terms, the value for `CCOC(=O)c1cc2c(ccn2-c2ccc(F)cc2)n1CC(=O)N1CCN(C(=O)c2ccco2)CC1` was 0.501 µM [rising, full curve, poor fit]; that for `Cc1cc(C(=O)COC(=O)c2cc(O)c3ccccc3c2O)c(C)n1CC1CCCO1` (stereo not drawn) was 22.4 µM [falling, single point].

For the origin of these results see PubChem BioAssay AID493014 (National Center for Advancing Translational Sciences (NCATS), 2011).
